Hit rate of the full screen: of about 400,000 compounds, about 13,000 (3.2%) were called active. The shares of active, inactive and inconclusive entries below differ from those in the screen. Calls come from the whole dose curve; as a rule, active = well fitted cell-killing curve with a large enough effect; inconclusive = small, poorly fitted or top-dose-only effect, or effect the other way; inactive = flat fitted curve, though single readings scatter. Potencies of inconclusive entries are doubtful fits and often do not repeat. Some compounds were tested as several samples or in several runs, with calls that do not always agree.
Assay: qHTS assay for MDR1-selective chemotherapeutics: Primary screen using the drug-selected MDR subline cells KB-V1; note: nearly all actives have a fitted effect of over 60% in size
Details: KB-V1 MDR cells viability, CellTiter-Glo, 72 h; series mostly up to 46.1 µM
Summary of the method: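 Cytotoxicity via CellTiter-Glo luminescence after 72 h compound exposure at 37 degrees C. Cells: drug-selected KB-V1 line, DMEM phenol-red free plus 10% FBS. Compounds tested at multiple concentrations; normalized data fitted to concentration-effect curves.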
Potency is the fitted concentration of half-maximal effect.

SMILES | Potency
CC(=O)CSc1ccc(-c2nc3cc(C)c(C)cc3[nH]2)cn1 | inconclusive: 16.4 µM [cytotoxic, single point]
C=C(C(=O)c1ccccc1)C(C)C(=C)C(=O)c1ccccc1 | active: 3.26 µM
N#CC1=C(N)Oc2cc(N)ccc2C1C1CC=CCC1 (configuration not stated) | active: 6.51 µM
COc1cc(CNCc2ccncc2)cc(Br)c1OCc1ccccc1F | active: 3.66 µM
O=C(c1ccncc1)N(Cc1cc2ccccc2[nH]c1=O)C1CCCCC1 | inconclusive: 16.4 µM [cytotoxic, partial curve]
CC(=O)N1CCOc2ccc(S(=O)(=O)Nc3cccc(C)n3)cc21 | inconclusive: 29.1 µM [rising, single point]
O=C1c2ccccc2C(=O)C1c1ccc2ccccc2n1 | active: 2.59 µM
COc1cccc(NC(=O)c2oc3ccccc3c2NC(=O)c2ccc(F)c(F)c2)c1 | inactive
CCCCNc1nc2ccccc2n1CC(=O)Nc1c(C)cccc1CC | inconclusive: 32.6 µM [cytotoxic, single point]
COc1ccc(CN2CCN(Cc3ccc4ccccc4c3)CC2)cc1OC | inconclusive: 32.6 µM [cytotoxic, single point]
COc1cccc(NC(=O)C(=O)NCC2CCCN2S(=O)(=O)c2cccs2)c1 (configuration not stated) | inconclusive: 18.4 µM [cytotoxic, single point]
COc1ccc(S(=O)(=O)NCC2CCCN(C(=O)c3cccs3)C2)cc1 (configuration not stated) | inconclusive: 16.4 µM [cytotoxic, single point]
COc1cc(OC)nc(Oc2ccccc2C=O)n1 | inactive
Cc1ccc(-n2c(=O)c3sc4ccccc4c3n(C)c2=O)cc1F | inactive
CC(=O)Nc1cc[n+](CC(=O)c2ccc(Cl)cc2)cc1 | inconclusive: 29.1 µM [rising, single point]
CCNC(=S)Nc1c(C)n(C)n(-c2ccccc2)c1=O | inconclusive: 29.1 µM [rising, single point]
O=C(NCCCn1ccnc1)c1cc2nc(-c3ccc(Br)cc3)cc(C(F)(F)F)n2n1 | inactive
N#Cc1ccc(N2CCN(S(=O)(=O)c3ccc4c(c3)CC(=O)N4)CC2)cc1 | inactive
CC(C)C[C@@H](CSc1ccccc1)N1CCN(CCc2ccccc2)CCC1=O | inconclusive: 11.6 µM [cytotoxic, partial curve]
COc1cccc(NC(=O)CN(C)C(=O)c2cccc(S(=O)(=O)N3c4ccccc4CC3C)c2)c1 (configuration not stated) | inconclusive: 29.1 µM [cytotoxic, single point]
O=S(=O)(c1ccc(N2CCOCC2)c(Cl)c1)N1CCOCC1 | inactive
C=CCn1c(NC(=O)c2ccc(Br)o2)c(C(=O)OCC)sc1=S | inconclusive: 18.4 µM [rising, partial curve, poor fit]
O=C1CN(/N=C/c2ccc([N+](=O)[O-])o2)C(=O)N1 | inconclusive: 20.6 µM [cytotoxic, single point]
COc1ccc(NS(=O)(=O)c2ccc(N/N=C(\C)c3ccncc3)c([N+](=O)[O-])c2)cc1 | inactive

SMILES | Potency
Cc1ccc(S(=O)(=O)N2C3CCCCC3O[C@H]2CC(=O)Oc2ccccc2)cc1 (some centres not stated) | inactive
Cc1cc(N2C(=O)Cc3ccccc3C2=O)ccc1C(C)C | inactive
CC(=O)c1c(C)[nH]c(C(=O)OCc2ccccc2F)c1C | active: 4.61 µM
COC(=O)CSc1nc(COc2ccccc2)nc2ccccc12 | inactive
CC(C)Cn1nc(NC(=O)C2CCCO2)c2cc3ccccc3nc21 (configuration not stated) | inactive
CC1CN(S(=O)(=O)c2cccc(C(=O)Nc3ccccc3N3CCCC3)c2)CC(C)O1 (configuration not stated) | inconclusive: 4.11 µM [cytotoxic, full curve]
CCCCc1sc(-c2c(C#N)c(N)nc3c2CCCCC3)cc1[N+](=O)[O-] | inconclusive: 14.6 µM [cytotoxic, partial curve]
Cc1ccc(C(=O)N2CCCCC2)cc1NC(=O)c1nsc2ccccc12 | inconclusive: 23.1 µM [cytotoxic, partial curve, poor fit]
Cc1ccc(CNC(=O)c2oc3ccc(S(=O)(=O)N4CCOCC4)cc3c2C)cc1 | inconclusive: 10.3 µM [cytotoxic, partial curve]
Cn1nccc1C(=O)NC1CCCc2c1cnn2-c1ccc(C(C)(C)C)cc1 (configuration not stated) | inconclusive: 5.8 µM [cytotoxic, full curve, poor fit]
O=C(Nc1ccccc1C(F)(F)F)C1CCN(S(=O)(=O)Cc2ccccc2)CC1 | inactive
CC(=O)c1ccc(NC(=O)Cn2cnc(S(=O)(=O)N3CCc4ccccc43)c2)cc1 | inactive
CCOC(=O)Cc1csc(NC(=O)c2ccc3c(c2)OCO3)n1 | inconclusive: 23.1 µM [cytotoxic, single point]
COc1ccc(N2CCN(c3cnc4ccccc4n3)CC2)cc1 | inactive
COc1cccc(NC(=S)N(Cc2cccc(Br)c2)CC2CCC(C(=O)O)CC2)c1 (configuration not stated) | inconclusive: 0.231 µM [cytotoxic, full curve, poor fit]
COc1ccc(OCc2nnnn2-c2ccccc2)cc1 | inconclusive: 3.66 µM [cytotoxic, partial curve, poor fit]
O=C(C1=C(O)C(=O)N(CCCn2ccnc2)C1c1ccccc1)c1ccco1 (configuration not stated) | inconclusive: 25.9 µM [rising, partial curve, poor fit]
CCOc1ccc(NC(=O)CN(C)C(=O)c2cn(-c3ccc(C)cc3)nc2-c2cccc(OC)c2)cc1OCC | active: 5.8 µM
CC(C)C[C@@H]1Cc2[nH]c(=S)[nH]c(=O)c2[C@H](C)O1 | inconclusive: 16.4 µM [cytotoxic, partial curve, poor fit]
CC(C)(C)C1CCN2CCC[C@](c3ccccc3)(C1)[C@@]21CO1 (some centres not stated) | inconclusive: 2.31 µM [rising, full curve, poor fit]
Cc1cc(C(=O)CSc2ccc3c(c2)OCCO3)c(C)n1C1CC1 | inactive
COc1ccc(/C=C/C(=O)N2CCCc3ccccc32)c(OC)c1 | inactive
CCCCC1CCC(C(=O)N(CCCC)c2c(N)n(CCCC)c(=O)[nH]c2=O)CC1 (configuration not stated) | inactive
COCCn1c(C(C)C)nc2sc3ccccc3c(=O)c2c1=O | active: 16.4 µM

In the list so far, two contain a tert-butyl group:
SMILES | Potency
Cn1nccc1C(=O)NC1CCCc2c1cnn2-c1ccc(C(C)(C)C)cc1 (configuration not stated) | inconclusive: 5.8 µM [cytotoxic, full curve, poor fit]
CC(C)(C)C1CCN2CCC[C@](c3ccccc3)(C1)[C@@]21CO1 (some centres not stated) | inconclusive: 2.31 µM [rising, full curve, poor fit]

Next part

SMILES | Potency
Cn1c(=O)c2c(nc(SCC(=O)Nc3ccc(F)cc3)n2Cc2ccccc2F)n(C)c1=O | inactive
O=[N+]([O-])c1ccc(Sc2nccn2Cc2ccccc2)c([N+](=O)[O-])c1 | inconclusive: 18.4 µM [cytotoxic, single point]
COc1ccc(OC)c(/C(O)=C/C(=O)C(=O)Nc2cc(C)cc(C)c2)c1 | inconclusive: 29.1 µM [cytotoxic, single point]
COc1cccc(-c2cc(C(=O)NCc3ccco3)c3ccccc3n2)c1 | inactive
O=C(O)CCCN1C(=O)/C(=C\c2ccco2)SC1=S | inconclusive: 29.1 µM [rising, single point]
O=C(COC(=O)c1ccccc1F)NC(=O)NC1CCCC1 | inconclusive: 29.1 µM [rising, partial curve, poor fit]
O=C(NCc1ccccc1)C1CCN(S(=O)(=O)c2ccc(Cl)cc2)CC1 | inconclusive: 23.1 µM [cytotoxic, single point]
O=C(Nc1ccc(N2CCN(C(=O)C3CC3)CC2)cc1)c1cccs1 | inconclusive: 29.1 µM [cytotoxic, single point]
O=C(Cc1ccc(S(=O)(=O)N2CCCC2)s1)N1CCN(c2ccc(F)cc2)CC1 | inconclusive: 11.6 µM [cytotoxic, partial curve]
CCCCn1c(N)c(N(CCOC)C(=O)c2cc(S(=O)(=O)N3CCOCC3)ccc2F)c(=O)[nH]c1=O | inconclusive: 18.4 µM [rising, single point]
COC(=O)N/N=C/c1ccc(-c2ccc(C)c(Cl)c2)o1 | inactive
CSCCC(c1nnnn1-c1c(C)cccc1C)N1CCN(C/C=C/c2ccccc2)CC1 (configuration not stated) | inconclusive: 32.6 µM [cytotoxic, single point]
Cc1c(Cl)cnc(NC(=O)COC(=O)c2nn(C)c(=O)c3ccccc23)c1Cl | inconclusive: 29.1 µM [rising, single point]
Cc1ccccc1NC(=O)CSCC(=O)Nc1ccccc1C | inconclusive: 9.2 µM [cytotoxic, partial curve]
COc1cc(SC)ccc1C(=O)N1CCc2ccccc21 | inactive
CN(C(=O)COc1ccccc1)c1nnc(-c2cccnc2)s1 | inactive
CCn1cc(/C=C(\NC(=O)c2ccc(OC)c(OC)c2)C(=O)NCCCN2CCOCC2)c2ccccc21 | inactive
CCc1cc2c(=O)oc(-c3ccc(Br)cc3)nc2s1 | inconclusive: 0.0046 µM [rising, full curve, poor fit]
CCC(=O)N1c2ccc(S(=O)(=O)CCC(=O)N3CCN(c4cc(C)ccc4C)CC3)cc2CC1C (configuration not stated) | inconclusive: 18.4 µM [cytotoxic, single point]
Cc1cc(C(O)c2ncc(-c3ccc(Oc4ccccc4)cc3)[nH]2)ccc1F (configuration not stated) | inconclusive: 16.4 µM [cytotoxic, single point]
Cc1ccc(-c2cc3nc(-c4ccccc4)cc(N4CCOCC4)n3n2)cc1 | inactive
Cc1cc(C(=O)Nc2ccccc2C(=O)O)ccc1NC(=O)COc1cccc(C)c1C | inactive
CCOc1ccc(NC(=S)N2CCN(c3ccc(N4CCOCC4)nn3)CC2)cc1 | inconclusive: 29.1 µM [rising, single point]
Cc1cc(C)cc(N(CCC#N)C(=O)COC(=O)C2CCN(c3ccc(C(F)(F)F)cn3)CC2)c1 | inconclusive: 9.2 µM [cytotoxic, partial curve]

Reference: PubChem BioAssay AID1347076 (National Center for Advancing Translational Sciences (NCATS), 2019)
